Test results as given in US20210267193A1, “Pest Repellent Agent” (Kao Corporation, priority 2018, published 2021).
Some of these results come from one statement about several compounds together.

Test system: Aedes albopictus
Test: Mosquito landing rate using human forearm
Format: in vivo
Conditions: 4 cm x 5 cm test site, 5 mg (0.25 mg/cm^2), about 50 mosquitoes, 28° C., 70% RH, listed as Comparative Example 4
Method: (4) Evaluation of Mosquito Landing Rate Using Human Forearm
The repellent effect of the pest repellent on human forearm was evaluated in terms of a mosquito landing rate.
(4-1) Preparation of Aedes albopictus
Female adults of Aedes albopictus were purchased from Mostop Inc. The adults were bred in a room at 28° C. and a relative humidity of 70% RH with a 12-hour light/dark cycle after delivery and appropriately used for tests. During breeding of mosquitoes, a 3% by mass sucrose aqueous solution was given as a feed. In order to facilitate the induction to the forearm, before the test, the food was changed to water, and the mosquitoes were fasted for 12 hours or more.
(4-2) Calculation of Landing Rate
The forearm was washed with a body wash (Biore u, manufactured by Kao Corporation), and water droplets were wiped off with a paper towel, followed by performing acclimatization for 10 minutes at room temperature. Thereafter, a rubber glove (Singer Latex Long Glove M, manufactured by Utsunomiya Seisakusho Co., Ltd.) covering up to the elbow was put on the arm to be measured. The mosquito cannot bite through the rubber glove.
The rubber glove was cut off with scissors to expose a test site of 4 cm×5 cm toward the inside of the forearm. […] The mosquito landing rate was calculated by the following equation. […]

In the case of `OCC(O)CO` [Polyhydric alcohol fx2, Glycerin, reference compound], the “Landing rate on exposed area (at 0.25 mg/cm^2)” value is reported as ≥ 73%.
